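Enzyme assay of tryptophanyl-tRNA synthetase; the read-out is not stated. Target: Tryptophan-tRNA ligase, Mycobacterium tuberculosis (UniProt P9WFT3). Compounds at 10 µM. Direction is not recorded; retested compounds ran higher, which suggests that high means inhibition. About 65,000 compounds were tested under these conditions; 0.098% (about 64) showed 50% or more at least once.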

Amino acid sequences for entries named in this document (tags omitted).
UniProt P9WFT3, whole entry: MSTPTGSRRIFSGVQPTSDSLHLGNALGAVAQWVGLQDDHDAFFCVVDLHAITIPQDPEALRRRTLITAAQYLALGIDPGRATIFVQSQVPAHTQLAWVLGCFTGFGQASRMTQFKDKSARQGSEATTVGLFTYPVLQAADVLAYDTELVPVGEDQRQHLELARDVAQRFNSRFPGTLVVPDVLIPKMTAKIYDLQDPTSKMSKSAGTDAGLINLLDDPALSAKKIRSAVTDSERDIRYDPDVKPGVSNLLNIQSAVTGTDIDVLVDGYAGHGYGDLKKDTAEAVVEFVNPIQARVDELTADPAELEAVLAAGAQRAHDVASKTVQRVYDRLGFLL

Results are given as percent effect.
The controls that fix the scale are not given in the record; negative values are as filed.
Compounds were drawn at random from those tested, without regard to their results.

| compound | Percent Effect |
|---|---|
| `Cc1cc(C)n(Cc2ccc(-c3noc(C(=O)NCCO)n3)cc2)n1` | 1.489 |
| `CCC1CN(C(=O)c2cc(CN(C)CCc3ccccc3)on2)CCO1` (configuration not stated) | 0.1505 |
| `c1cc(CN2CCc3c(CN4CCCC4)n[nH]c3C2)ccn1` | 3.198 |
| `Cn1ccc2c(C(=O)N3CCCC3c3noc(C4CC4)n3)cccc21` (configuration not stated) | -0.9085 |
| `CCNC(=O)N1CC[C@H]2CC(=O)N(C3CCCCC3)CC[C@H]2C1` | 0.5271 |
| `COc1ccc(F)cc1C(=O)N1CCCC(CNS(C)(=O)=O)C1` (configuration not stated) | -8.616 |
| `COc1nc(C)c(C(=O)NCc2cc(N3CCOCC3)ncn2)s1` | 2.511 |
| `Cc1[nH]ccc1C(=O)N1CCC2(CC1)c1nc[nH]c1CCN2S(C)(=O)=O` | 0.9428 |
| `Cc1nc(CN2CCCC(N(C)CC3CCCC3)C2)no1` (configuration not stated) | -7.733 |
| `NC(=O)CCC1CCCN(c2ccc3ccc(F)cc3n2)C1` (configuration not stated) | -5.616 |
| `Cc1ccc(NC(=O)Nc2c(O)oc3ccccc3c2=O)cc1` | -5.347 |
| `CCc1ccc(CN2CCN(Cc3ncc[nH]3)[C@H]3CS(=O)(=O)C[C@H]32)nc1` | -1.319 |
| `O=C(C1CCCCC1)N1C[C@@H]2CCNC[C@@H]21` | -6.71 |
| `Cc1ncc2c(n1)CCN(Cc1nc(Cc3ccccc3)no1)C2` | 1.176 |
| `CCc1nn(C)c(Cl)c1CN1CCCC(c2cc(O)nc(C)n2)C1` (configuration not stated) | -1.882 |
| `N#Cc1csc(CNCCOc2ncccc2Cl)c1` | 4.152 |
| `COc1c(C2CCCN2C(=O)c2ccoc2)c(C)nn1C` (configuration not stated) | 2.741 |
| `OC1CN(Cc2ccccc2)CCN(c2ccncc2)C1` (configuration not stated) | 3.888 |
| `CCc1nc(CN2CCCC(NCc3ccc(C(N)=O)cc3)C2)no1` (configuration not stated) | 1.023 |
| `O=C(CCc1ccccc1)Nc1ncccc1OC(F)F` | -6.066 |
| `COc1ccc(CN2CCC3(CCN(c4cccnc4)C3=O)C2)cc1` (configuration not stated) | 0.9764 |
| `CC(C)(C)NC(=O)NC(=O)CNC(C)(C)c1ccc2c(c1)OCCO2` | 1.8 |
| `CC(C)Cc1nc(CN(C)CCOc2ccc(F)cc2)no1` | -1.288 |
| `CCN(C)Cc1n[nH]c(=O)n1-c1cc(F)ccc1C` | -3.446 |
| `CC1CCC(O)(Cn2ncnc2-c2cccc(C#N)c2)CC1` (configuration not stated) | -0.5727 |
| `O=S1(=O)CCCN1Cc1coc(-c2ccc(C(F)(F)F)cc2)n1` | 5.263 |
| `COc1ccc2nnc(CCCC(=O)NCc3ccccc3OC)n2n1` | 0 |
| `Cn1ccnc1CN1C[C@H]2CN(S(C)(=O)=O)CCN2C1=O` | -1.754 |
| `Cc1ccc(-n2c(COCC(=O)O)nc3c(C)cccc32)nc1` | -5.008 |
| `COCCn1/c(=N\C(=O)CN(C)S(C)(=O)=O)sc2cc(Cl)ccc21` | -3.391 |
| `CC(C(=O)NCc1ccc(N2CCCCCC2)nc1)S(C)(=O)=O` (configuration not stated) | -1.977 |
| `Cc1nc2c(c(=O)n1C)CN(C(=O)C1CCCN(C(=O)N(C)C)C1)C2` (configuration not stated) | -2.249 |
| `Cc1nsc(C(=O)NCCc2ccc(Cl)cc2)n1` | -1.34 |
| `CC(=O)CSc1nnc2n1N=CN(c1cccc(Cl)c1)C2` | 2.202 |
| `CCN(CC1CCOC1)C(=O)Nc1ccc(N2CCCCC2)nc1` (configuration not stated) | 0.1337 |
| `CCCS(=O)(=O)N1CCc2onc(CNc3ncccn3)c2C1` | 3.614 |
| `Cc1occc1-c1nc(-c2cccc(CN3CCOCC3)c2)no1` | 4.024 |
| `O=C1CC(c2ccc(F)cc2)c2cnn(C3CCCC3)c2N1` (configuration not stated) | -0.4968 |
| `Cc1nccc(CNC(=O)NC(c2ncc(C)s2)C2CC2)n1` (configuration not stated) | 7.464 |
| `Cn1cc(C(=O)N2CCN(c3ccccc3)CC2)ccc1=O` | -6.502 |
| `CC(NCc1cccs1)c1ccc(OCc2nccn2C)cc1` (configuration not stated) | -4.078 |
| `Cc1cccnc1NC(=O)N(CCO)Cc1ccsc1` | -4.959 |
| `O=C1CCC(=O)c2oc3ccccc3c2N1` | 4.074 |
| `CC(C(=O)Nc1nccs1)N1CCc2nn(C)c(=O)cc2C1` (configuration not stated) | 1.364 |
| `Cn1cnnc1C1CCCN(C(=O)Cc2ccc3c(c2)OCCO3)C1` (configuration not stated) | 2.424 |
| `COC(=O)c1ccc(N2CCN(CC(=O)NC(N)=O)C(C)C2)cc1` (configuration not stated) | -8.437 |
| `COc1cccc(Cn2cc(N3C(=O)CCC3=O)cn2)c1` | 1.004 |
| `NC(=O)Cn1cc(NC(=O)N2CCSCC2)cn1` | 10.82 |
| `Cc1ccc(CN2CCN(c3ccc(F)cn3)CC2=O)cc1C` | 0.3221 |
| `C[C@@H]1CN(CCOc2ccc(Cl)cc2)CC[C@@]1(O)C1CCOCC1` | -1.677 |
| `COc1ccc(CN(C)C(=O)CN2CC(n3cc(C)cn3)C2)cc1F` | -2.556 |
| `Cn1cc(CCNC(=O)c2cc3ccccc3nc2N2CCCC2)cn1` | -2.849 |
| `Cc1nc(Nc2nncs2)cc(C2CNC2)n1` | -2.903 |
| `COCc1cccc(CNC(=O)CNc2ccccc2C(C)=O)c1` | -4.402 |
| `CCC(=O)Nc1cc(Cl)ccc1C(=O)N(C)Cc1noc(CC)n1` | 3.995 |
| `COCCN1C(=O)C2(CCC(C(=O)Nc3cccc(C)c3)CC2)N=C1C` (configuration not stated) | -0.2116 |
| `Cc1nc(C)n(CC2CN(Cc3cccc(OC(C)C)c3)CCO2)n1` (configuration not stated) | -2.416 |
| `c1ccc(C[C@H]2CN(Cc3nccs3)CC[C@H]2OCC2CC2)cc1` | -1.233 |
| `CCc1nc(C2CCCN2Cc2ccno2)no1` (configuration not stated) | 3.408 |
| `Cc1cnc(CN2CCN(C(C)c3nc(C(C)C)no3)CC2)cn1` (configuration not stated) | 3.423 |
| `CN(Cc1ccccc1)C1(C(=O)NC(C)(C)CO)Cc2ccccc2C1` | -3.024 |
| `Cc1nc(N(C)CCN(C)C)c2cnn(C)c2n1` | 12.02 |
| `Cc1ncnc(NCc2cc3n(n2)CCCN(S(C)(=O)=O)C3)c1C` | -1.587 |
| `Cc1ccccc1-n1cc(-c2ccnc(N[C@H](CO)C(C)C)n2)cn1` | 2.547 |
| `Cc1nn(C)c(Cl)c1C1CCCN1Cc1nnc(C2CC2)n1C` (configuration not stated) | -2.275 |
| `CC(C)Cc1cc(C(=O)N2CCC[C@H]2C(=O)N2CCOCC2)on1` | 1.575 |
| `Cc1cccc(CS(=O)(=O)NCc2nn(C)c3c2CCCC3)c1` | 2.25 |
| `Cc1noc(C)c1CN(C)c1nccc(C(F)(F)F)n1` | -5.027 |
| `Cc1cc(Cn2cc(C#N)c(=O)c3ccccc32)on1` | -5.728 |
| `Cc1occc1C(=O)N1CCC2(CCC2NC(=O)c2ccn(C)c2)CC1` (configuration not stated) | 2.354 |
| `CC(C)N1CCC2(CCN(C(=O)c3cccnc3)CC2)C1` | 1.657 |
| `CC(C)n1c(C2CCCN(CC(=O)NC(N)=O)C2)nc2ccccc21` (configuration not stated) | -3.431 |
| `CN(C)CCO[C@H]1CN(C(=O)c2ccc[nH]2)[C@@H]2COC[C@H]12` | -4.359 |
| `O=C(c1ccccc1)N1CC[C@H]2C[C@@H](c3nccs3)O[C@@H]2C1` | 4.011 |
| `CCS(=O)(=O)N1CCCc2ccc(NC(=O)Cc3ccc(F)cc3)cc21` | 1.654 |
| `Cc1cc(C)n(CC2CCCN2CC(=O)Nc2cc(C(C)C)no2)n1` (configuration not stated) | 5.48 |
| `O=C(CCCc1ccccn1)N1CCCC(n2cccn2)C1` (configuration not stated) | -4.959 |
| `CCOCC1CN(Cc2cccs2)Cc2nn(C)cc21` (configuration not stated) | 1.918 |

The last 6 entries again:

compound,Percent Effect
CN(C)CCO[C@H]1CN(C(=O)c2ccc[nH]2)[C@@H]2COC[C@H]12,-4.359
O=C(c1ccccc1)N1CC[C@H]2C[C@@H](c3nccs3)O[C@@H]2C1,4.011
CCS(=O)(=O)N1CCCc2ccc(NC(=O)Cc3ccc(F)cc3)cc21,1.654
Cc1cc(C)n(CC2CCCN2CC(=O)Nc2cc(C(C)C)no2)n1 (configuration not stated),5.48
O=C(CCCc1ccccn1)N1CCCC(n2cccn2)C1 (configuration not stated),-4.959
CCOCC1CN(Cc2cccs2)Cc2nn(C)cc21 (configuration not stated),1.918

Measurements from “University of Dundee, Small-Polar-MMV Screening Library” (2021), ChEMBL document CHEMBL3988442.